This passage reports binding results from PMC8667318.

Amino acid sequences for entries named in this document (tags omitted). A change or cut given only in a name is not applied to a line headed by its entry. Residues count along the entry.
UniProt Q99705: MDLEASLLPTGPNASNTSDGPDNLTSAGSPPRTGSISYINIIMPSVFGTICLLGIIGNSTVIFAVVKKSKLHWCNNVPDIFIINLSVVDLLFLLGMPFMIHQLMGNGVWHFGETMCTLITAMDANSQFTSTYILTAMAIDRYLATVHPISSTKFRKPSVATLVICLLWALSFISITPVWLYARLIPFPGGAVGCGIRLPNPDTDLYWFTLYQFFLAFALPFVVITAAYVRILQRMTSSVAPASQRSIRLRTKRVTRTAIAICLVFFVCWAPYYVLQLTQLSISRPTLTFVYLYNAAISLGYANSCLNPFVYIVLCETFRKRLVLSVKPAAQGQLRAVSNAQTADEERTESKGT
UniProt P01127, residues 82-190: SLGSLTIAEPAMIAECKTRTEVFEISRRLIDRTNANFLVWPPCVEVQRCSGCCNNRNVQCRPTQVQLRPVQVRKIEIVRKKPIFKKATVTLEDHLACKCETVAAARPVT

The experiment addresses Recombinant human MCHR1 Protein (human) (UniProt Q99705). Kind of experiment: far-Western, overlay or dot blot; western ligand blot: indicated amounts of recombinant human MCHR1 electrophoresed under non-reducing conditions, transferred to nitrocellulose, incubated 1 hour with biotinylated PDGF-BB, detected with streptavidin-HRP; both purified.

Results are given in words; binding and its absence hold for the method and conditions named. A result given as binding can be weak or reduced; the word gives no strength.

In the case of “biotinylated PDGF-BB (from UniProt P01127 82-190) (ligand)”, the binding result was “binds”.
